The results in this text go back to the supplement of paper PMC12067093, “Discovery and optimisation of a covalent ligand for TRIM25 and its application to targeted protein ubiquitination” (Chemical Science, 2025).

By UniProt entry, the sequences of proteins in these tests, tags left out. Where a name states a change or a piece, a line headed by the entry shows the natural chain unless it says otherwise.
UniProt Q5U5X0: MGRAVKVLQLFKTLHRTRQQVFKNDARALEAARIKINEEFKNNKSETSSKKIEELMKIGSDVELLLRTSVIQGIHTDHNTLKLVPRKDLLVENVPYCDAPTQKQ
UniProt O94822: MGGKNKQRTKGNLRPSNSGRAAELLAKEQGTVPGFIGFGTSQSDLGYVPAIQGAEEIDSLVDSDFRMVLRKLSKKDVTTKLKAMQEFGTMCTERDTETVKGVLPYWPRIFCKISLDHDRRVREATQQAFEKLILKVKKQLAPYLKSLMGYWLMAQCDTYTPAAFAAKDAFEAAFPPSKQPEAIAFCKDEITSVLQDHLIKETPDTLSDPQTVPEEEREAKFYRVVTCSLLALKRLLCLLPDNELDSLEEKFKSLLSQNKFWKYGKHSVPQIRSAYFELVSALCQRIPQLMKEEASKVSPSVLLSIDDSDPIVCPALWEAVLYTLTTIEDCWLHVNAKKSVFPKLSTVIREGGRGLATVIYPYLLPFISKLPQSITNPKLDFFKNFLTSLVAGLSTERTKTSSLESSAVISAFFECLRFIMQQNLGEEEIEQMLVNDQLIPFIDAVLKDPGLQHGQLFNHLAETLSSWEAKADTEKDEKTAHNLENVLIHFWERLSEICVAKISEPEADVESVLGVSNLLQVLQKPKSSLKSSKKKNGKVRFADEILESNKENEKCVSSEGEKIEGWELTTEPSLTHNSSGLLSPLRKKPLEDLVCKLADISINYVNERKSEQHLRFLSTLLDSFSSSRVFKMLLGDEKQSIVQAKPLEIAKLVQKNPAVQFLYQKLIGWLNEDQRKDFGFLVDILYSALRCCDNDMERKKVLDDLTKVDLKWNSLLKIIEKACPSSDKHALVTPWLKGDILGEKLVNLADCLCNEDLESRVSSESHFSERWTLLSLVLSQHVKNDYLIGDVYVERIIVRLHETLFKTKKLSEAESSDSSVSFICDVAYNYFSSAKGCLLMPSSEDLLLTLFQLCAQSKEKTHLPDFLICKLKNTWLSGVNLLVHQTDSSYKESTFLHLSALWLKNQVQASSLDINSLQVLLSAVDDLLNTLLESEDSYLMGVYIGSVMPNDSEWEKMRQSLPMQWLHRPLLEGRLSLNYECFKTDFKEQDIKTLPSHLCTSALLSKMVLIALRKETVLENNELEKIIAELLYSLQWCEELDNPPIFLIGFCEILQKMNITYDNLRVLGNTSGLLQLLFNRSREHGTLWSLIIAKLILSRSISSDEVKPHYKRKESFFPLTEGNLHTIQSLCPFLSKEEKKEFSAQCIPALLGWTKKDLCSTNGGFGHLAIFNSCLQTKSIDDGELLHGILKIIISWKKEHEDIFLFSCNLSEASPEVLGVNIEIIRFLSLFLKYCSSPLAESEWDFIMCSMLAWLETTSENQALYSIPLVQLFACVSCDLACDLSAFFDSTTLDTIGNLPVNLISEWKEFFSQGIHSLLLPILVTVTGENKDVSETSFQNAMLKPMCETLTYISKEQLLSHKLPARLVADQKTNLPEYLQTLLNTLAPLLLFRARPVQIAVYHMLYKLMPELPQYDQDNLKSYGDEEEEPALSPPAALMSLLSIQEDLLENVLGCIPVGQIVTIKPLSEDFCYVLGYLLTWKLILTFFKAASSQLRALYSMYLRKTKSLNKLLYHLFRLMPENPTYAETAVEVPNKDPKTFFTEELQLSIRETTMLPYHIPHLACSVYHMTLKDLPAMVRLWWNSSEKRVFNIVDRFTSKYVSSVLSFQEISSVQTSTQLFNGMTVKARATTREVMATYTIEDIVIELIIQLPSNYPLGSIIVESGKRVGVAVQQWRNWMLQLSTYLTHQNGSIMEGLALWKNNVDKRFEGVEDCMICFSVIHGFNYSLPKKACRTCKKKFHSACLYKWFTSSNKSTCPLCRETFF
UniProt Q99698: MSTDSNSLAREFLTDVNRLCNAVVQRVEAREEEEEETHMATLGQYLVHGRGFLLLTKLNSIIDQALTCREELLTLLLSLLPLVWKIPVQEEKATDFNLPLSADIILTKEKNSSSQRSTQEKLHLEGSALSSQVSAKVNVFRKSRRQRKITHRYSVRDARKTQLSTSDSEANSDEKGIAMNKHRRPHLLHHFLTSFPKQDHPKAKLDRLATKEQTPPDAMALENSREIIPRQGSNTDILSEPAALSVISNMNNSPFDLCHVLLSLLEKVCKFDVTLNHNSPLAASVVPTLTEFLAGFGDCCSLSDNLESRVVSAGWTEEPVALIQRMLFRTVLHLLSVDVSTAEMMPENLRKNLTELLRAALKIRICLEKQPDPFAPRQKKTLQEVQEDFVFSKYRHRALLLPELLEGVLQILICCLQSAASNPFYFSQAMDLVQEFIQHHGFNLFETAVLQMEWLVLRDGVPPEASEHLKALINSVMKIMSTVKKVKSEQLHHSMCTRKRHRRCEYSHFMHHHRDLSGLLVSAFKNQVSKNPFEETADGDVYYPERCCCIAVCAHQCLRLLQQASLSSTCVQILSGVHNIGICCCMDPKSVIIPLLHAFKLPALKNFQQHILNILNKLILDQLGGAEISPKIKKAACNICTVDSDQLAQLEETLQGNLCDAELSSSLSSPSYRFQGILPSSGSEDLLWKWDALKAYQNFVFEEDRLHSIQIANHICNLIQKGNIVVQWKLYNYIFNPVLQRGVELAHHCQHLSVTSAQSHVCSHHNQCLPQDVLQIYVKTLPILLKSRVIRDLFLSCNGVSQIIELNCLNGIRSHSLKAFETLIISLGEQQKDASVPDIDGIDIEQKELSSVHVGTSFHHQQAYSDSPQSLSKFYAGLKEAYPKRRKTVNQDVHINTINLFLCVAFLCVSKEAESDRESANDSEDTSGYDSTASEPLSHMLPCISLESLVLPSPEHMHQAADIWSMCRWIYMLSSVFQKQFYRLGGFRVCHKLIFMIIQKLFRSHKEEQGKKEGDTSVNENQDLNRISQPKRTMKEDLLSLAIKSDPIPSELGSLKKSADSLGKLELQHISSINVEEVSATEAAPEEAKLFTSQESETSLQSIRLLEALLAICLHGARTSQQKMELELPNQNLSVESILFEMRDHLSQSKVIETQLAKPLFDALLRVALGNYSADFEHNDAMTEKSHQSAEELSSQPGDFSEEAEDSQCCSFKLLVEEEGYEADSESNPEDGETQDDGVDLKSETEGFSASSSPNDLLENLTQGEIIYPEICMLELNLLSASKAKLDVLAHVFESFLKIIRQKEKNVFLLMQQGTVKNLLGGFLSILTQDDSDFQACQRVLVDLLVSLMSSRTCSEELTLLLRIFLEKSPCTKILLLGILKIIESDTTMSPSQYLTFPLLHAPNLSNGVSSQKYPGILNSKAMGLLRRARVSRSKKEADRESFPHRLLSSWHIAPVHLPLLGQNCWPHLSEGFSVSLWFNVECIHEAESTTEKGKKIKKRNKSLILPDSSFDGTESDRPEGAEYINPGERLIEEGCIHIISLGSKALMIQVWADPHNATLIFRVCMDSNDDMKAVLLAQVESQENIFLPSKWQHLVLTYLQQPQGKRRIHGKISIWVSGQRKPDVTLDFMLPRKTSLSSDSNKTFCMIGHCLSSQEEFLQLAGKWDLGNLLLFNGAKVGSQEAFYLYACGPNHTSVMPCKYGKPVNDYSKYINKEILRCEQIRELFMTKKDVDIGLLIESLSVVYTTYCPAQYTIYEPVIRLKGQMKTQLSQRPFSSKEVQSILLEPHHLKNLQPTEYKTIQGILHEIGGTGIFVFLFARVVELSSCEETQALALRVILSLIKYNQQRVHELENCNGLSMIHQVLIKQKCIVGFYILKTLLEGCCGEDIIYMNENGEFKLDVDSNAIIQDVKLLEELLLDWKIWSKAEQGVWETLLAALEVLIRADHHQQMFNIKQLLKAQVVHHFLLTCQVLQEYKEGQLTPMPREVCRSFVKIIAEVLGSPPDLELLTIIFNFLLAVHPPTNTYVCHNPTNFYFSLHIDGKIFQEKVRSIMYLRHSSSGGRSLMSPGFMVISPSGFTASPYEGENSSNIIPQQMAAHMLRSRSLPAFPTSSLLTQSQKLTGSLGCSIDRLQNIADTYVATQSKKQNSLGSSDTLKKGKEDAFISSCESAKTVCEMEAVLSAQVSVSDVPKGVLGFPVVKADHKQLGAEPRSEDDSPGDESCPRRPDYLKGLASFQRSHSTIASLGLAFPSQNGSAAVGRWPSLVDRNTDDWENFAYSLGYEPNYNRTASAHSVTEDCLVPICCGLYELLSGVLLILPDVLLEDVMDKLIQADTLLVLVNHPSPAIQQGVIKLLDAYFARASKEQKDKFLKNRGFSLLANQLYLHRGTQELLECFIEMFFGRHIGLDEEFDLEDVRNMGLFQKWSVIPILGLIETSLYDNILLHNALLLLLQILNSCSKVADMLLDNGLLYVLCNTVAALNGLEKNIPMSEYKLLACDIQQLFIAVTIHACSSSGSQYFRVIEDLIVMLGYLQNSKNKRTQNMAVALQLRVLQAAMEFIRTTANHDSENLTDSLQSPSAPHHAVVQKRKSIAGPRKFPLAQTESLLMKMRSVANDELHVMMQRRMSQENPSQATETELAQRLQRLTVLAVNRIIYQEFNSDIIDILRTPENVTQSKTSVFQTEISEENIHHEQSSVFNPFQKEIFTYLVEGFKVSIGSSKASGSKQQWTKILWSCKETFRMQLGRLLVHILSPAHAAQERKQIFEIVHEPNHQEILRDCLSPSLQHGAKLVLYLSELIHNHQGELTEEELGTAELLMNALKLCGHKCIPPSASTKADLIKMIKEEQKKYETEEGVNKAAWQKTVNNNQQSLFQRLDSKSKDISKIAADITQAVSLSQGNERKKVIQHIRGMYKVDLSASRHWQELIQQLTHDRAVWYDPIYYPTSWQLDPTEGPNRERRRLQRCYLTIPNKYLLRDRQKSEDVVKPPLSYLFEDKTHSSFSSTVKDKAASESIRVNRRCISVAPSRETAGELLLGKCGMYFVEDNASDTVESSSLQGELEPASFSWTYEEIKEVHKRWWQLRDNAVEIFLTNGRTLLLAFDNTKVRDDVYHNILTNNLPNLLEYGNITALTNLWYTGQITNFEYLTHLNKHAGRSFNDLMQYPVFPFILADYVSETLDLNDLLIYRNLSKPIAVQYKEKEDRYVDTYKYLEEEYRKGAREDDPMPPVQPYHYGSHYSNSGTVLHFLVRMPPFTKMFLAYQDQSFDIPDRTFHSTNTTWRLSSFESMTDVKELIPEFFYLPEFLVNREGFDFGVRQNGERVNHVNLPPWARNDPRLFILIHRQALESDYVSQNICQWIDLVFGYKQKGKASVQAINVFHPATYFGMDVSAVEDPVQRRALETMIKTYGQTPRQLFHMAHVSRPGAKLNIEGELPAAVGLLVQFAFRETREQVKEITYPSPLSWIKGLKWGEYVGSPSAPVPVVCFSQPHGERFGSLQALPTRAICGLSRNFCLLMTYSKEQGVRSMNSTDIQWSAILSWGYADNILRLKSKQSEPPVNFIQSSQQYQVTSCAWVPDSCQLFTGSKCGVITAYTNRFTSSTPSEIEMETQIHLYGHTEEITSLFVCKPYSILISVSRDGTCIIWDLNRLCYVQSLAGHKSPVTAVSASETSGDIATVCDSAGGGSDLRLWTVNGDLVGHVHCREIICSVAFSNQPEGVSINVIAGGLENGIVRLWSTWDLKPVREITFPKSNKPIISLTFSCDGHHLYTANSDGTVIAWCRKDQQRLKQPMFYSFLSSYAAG
UniProt P43243: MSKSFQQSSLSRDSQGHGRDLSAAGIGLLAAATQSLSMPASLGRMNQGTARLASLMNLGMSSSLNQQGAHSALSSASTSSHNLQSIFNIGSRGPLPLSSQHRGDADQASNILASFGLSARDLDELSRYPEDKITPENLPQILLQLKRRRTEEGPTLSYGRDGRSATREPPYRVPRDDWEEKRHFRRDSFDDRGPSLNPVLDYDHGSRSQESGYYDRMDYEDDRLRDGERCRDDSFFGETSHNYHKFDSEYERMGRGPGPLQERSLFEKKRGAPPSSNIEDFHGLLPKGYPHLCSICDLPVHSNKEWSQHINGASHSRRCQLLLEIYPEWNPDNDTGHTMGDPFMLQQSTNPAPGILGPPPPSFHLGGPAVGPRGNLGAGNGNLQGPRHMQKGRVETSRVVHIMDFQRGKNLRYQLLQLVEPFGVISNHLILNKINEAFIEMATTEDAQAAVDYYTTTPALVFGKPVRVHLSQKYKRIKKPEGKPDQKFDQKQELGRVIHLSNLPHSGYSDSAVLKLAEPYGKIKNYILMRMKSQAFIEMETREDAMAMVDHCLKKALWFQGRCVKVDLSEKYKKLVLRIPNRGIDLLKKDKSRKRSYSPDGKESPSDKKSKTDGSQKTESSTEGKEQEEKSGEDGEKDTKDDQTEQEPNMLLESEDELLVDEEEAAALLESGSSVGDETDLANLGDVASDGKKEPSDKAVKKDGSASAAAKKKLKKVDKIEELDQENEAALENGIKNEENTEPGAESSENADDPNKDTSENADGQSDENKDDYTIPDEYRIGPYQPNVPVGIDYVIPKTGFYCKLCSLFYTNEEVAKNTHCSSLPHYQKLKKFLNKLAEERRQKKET

This is one part of the list.
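Also: competitive chemoproteomic profiling in live THP-1 cells with an iodoacetamide desthiobiotin (IA-DTB) probe, comparing probe-labelled peptide intensities in compound-treated cells against DMSO-treated controls.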

Compound in the assay: CC1Cc2ccccc2N1C(=O)C1CCCN(C1)C(=O)CCl (mixture of isomers) [TRIM25 ligand 11 (diastereomer mixture)]
In words: probe-labelled cysteine peptide fold change vs DMSO (competition) (log2 fold change); higher = less target engagement (more negative = stronger competition). Conditions: 50 µM; THP-1; incubation time: 4 h.
“MARCH3_Q86UD3_89_ICHEGSSQEDLLSPCECTGTLGTIHR (UniProt Q86UD3)”: the “probe-labelled cysteine peptide fold change” value turned out to be 0.0333.
For “LY75_O60449_1380_VIEEAVYFHQHSILACK (UniProt O60449)” the value was 0.443.
For “MAPK9_P45984_177_TACTNFMMTPYVVTR (UniProt P45984)” the value was -0.48.
For “MAP3K1_Q13233_488_NREPLICPLCR (UniProt Q13233)”, the “probe-labelled cysteine peptide fold change” value was found to be 0.316.
For “MAP10_Q9P2G4_256_AECDNVGSVENGK (UniProt Q9P2G4)” the value was -0.143.
“MAP3K5_Q99683_391_ALDIMIPMVQSEGQVASDMYCLVGR (UniProt Q99683)”: the “probe-labelled cysteine peptide fold change” value is -0.232.
“LY75_O60449_150_KGGSEESLCDQPYHEIYTR (UniProt O60449)”: the “probe-labelled cysteine peptide fold change” value is -0.013.
The result for “MACF1_Q9UPN3_4581_QLEESASHLACFQAAESQLRPWLMEK (UniProt Q9UPN3)” reads -0.101; that for “MAP1S_Q66K74_435+440_VLFPGCTPPACLLDGLVR (UniProt Q66K74)”, -0.0707.
For “MACF1_Q9UPN3_6075_ILGADLIFACGETEKPEVR (UniProt Q9UPN3)”, the “probe-labelled cysteine peptide fold change” value amounted to 0.259.
For “MACF1_Q9UPN3_892_NDECVLEDNSQR (UniProt Q9UPN3)”, the “probe-labelled cysteine peptide fold change” value is -0.11.
The result for “LYRM7_Q5U5X0_97_DLLVENVPYCDAPTQK (UniProt Q5U5X0)” reads 0.0601; that for “MAN2B1_O00754_268+273_NLCWDVLCVDQPLVEDPR (UniProt O00754)”, -0.0574.
The result for “LTN1_O94822_1745_KFHSACLYK (UniProt O94822)” reads 0.0258; that for “MAU2_Q9Y6X3_145_AIQISQQTPYWHCR (UniProt Q9Y6X3)”, 0.0177; that for “MAP3K8_P41279_398_CQSLDSALLER (UniProt P41279)”, -0.224.
For “MALT1_Q9UDY8_667_HCLYTR (UniProt Q9UDY8)” the value was -0.0638; for “MAPK1_P28482_254_HYLDQLNHILGILGSPSQEDLNCIINLK (UniProt P28482)”, -0.0188; for “MBD4_O95243_549_IFCVNEWK (UniProt O95243)”, 0.105.
Turning to “LUC7L3_O95232_40_YYLCGFCPAELFTNTR (UniProt O95232)”, the “probe-labelled cysteine peptide fold change” value was 0.116.
The result for “LYAR_Q9NX58_36_NCECLSCIDCGK (UniProt Q9NX58)” reads -0.115.
For “LYST_Q99698_1855_VHELENCNGLSMIHQVLIK (UniProt Q99698)” the value was 0.0915.
For “MAP3K4_Q9Y6R4-2_1157_CHSDPPNPHLIIPTPEGFR (UniProt Q9Y6R4)”, the “probe-labelled cysteine peptide fold change” value is -0.176.
For “MATR3_P43243_821_NTHCSSLPHYQK (UniProt P43243)” the value was -0.196; for “MAPK12_P53778_42_DLQPVGSGAYGAVCSAVDGR (UniProt P53778)”, -0.322.
For “LTN1_O94822_237_LLCLLPDNELDSLEEK (UniProt O94822)” the value was 0.34.
The result for “LYST_Q99698_3701_LWTVNGDLVGHVHCR (UniProt Q99698)” reads 0.162.
For “MAP2K6_P52564_216_TIDAGCK (UniProt P52564)”, the “probe-labelled cysteine peptide fold change” value turned out to be 0.111.
Take “LY75_O60449-2_1697_NQCTDHGADMISIHNEEENAFILDTLK (UniProt O60449)”: the “probe-labelled cysteine peptide fold change” value is 0.104.
The result for “LYAR_Q9NX58_33_NCECLSCIDCGK (UniProt Q9NX58)” reads -0.0779; that for “MACF1_Q9UPN3_3619_QQNTCHQQLEDLCSWVGQAER (UniProt Q9UPN3)”, 0.118.
The result for “LYPLAL1_Q5VWZ2_174_SNGVLPELFQCHGTADELVLHSWAEETNSMLK (UniProt Q5VWZ2)” reads 0.156; that for “MACF1_Q9UPN3_3368_QLCLEHDEK (UniProt Q9UPN3)”, 0.202; that for “LUC7L_Q9NQ29_97_ERDLFFELDAMDHLESFIAECDR (UniProt Q9NQ29)”, -0.000223.
For the target “MAP4K2_Q12851_302_ASDPHLGTPSPEDCELETYDMFPDTIHSR (UniProt Q12851)”, the “probe-labelled cysteine peptide fold change” value is -0.161.
The result for “MATR3_P43243_552_EDAMAMVDHCLKK (UniProt P43243)” reads -0.0163; that for “MACF1_Q9UPN3_5116_VNSGCVMMENK (UniProt Q9UPN3)”, 0.222.
The result for “MAT2A_P31153_34_ICDQISDAVLDAHLQQDPDAK (UniProt P31153)” reads -0.196; that for “MAN1A2_O60476_462_MGHLACFAGGMFALGADGSR (UniProt O60476)”, -0.0276; that for “LYST_Q99698_3649_LCYVQSLAGHK (UniProt Q99698)”, -0.124.
